# Measured values from patent publication US20220160650A1, “GEL, OINTMENT, AND FOAM FORMULATIONS OF TAPINAROF AND METHODS OF USE” (Dermavant Sciences GmbH, priority 2020, published 2022).
# At least one read-out could not be matched to a standard name with certainty.
# Assay: Excipient stability of tapinarof in individual excipients, tapinarof assay HPLC method (recovery)
# Type: physicochemical
compound,measurement,setting,value
"CC(C)c1c(O)cc(/C=C/c2ccccc2)cc1O [tapinarof, 3,5-Dihydroxy-4-isopropyl-trans-stilbene]",Percentage of recovery of DMVT-505,"in Almond oil, t = 0",93.05 (93.02-93.09) %
same,Percentage of recovery of DMVT-505,"in Almond oil, t = 2 weeks, 40° C.",98.31 (97.60-99.02) %
same,Percentage of recovery of DMVT-505,"in Almond oil, t = 2 weeks, 70° C.",95.43 (94.90-95.96) %
same,Percentage of recovery of DMVT-505,"in Arlasolve DMI, t = 0",97.85 (97.84-97.87) %
same,Percentage of recovery of DMVT-505,"in Arlasolve DMI, t = 2 weeks, 40° C.",87.71 (87.41-88.01) %
same,Percentage of recovery of DMVT-505,"in Arlasolve DMI, t = 2 weeks, 70° C.",76.41 (76.14-76.68) %
same,Percentage of recovery of DMVT-505,"in Castor oil, t = 0",98.86 (98.54-99.17) %
same,Percentage of recovery of DMVT-505,"in Castor oil, t = 2 weeks, 40° C.",102.05 (101.22-102.89) %
same,Percentage of recovery of DMVT-505,"in Castor oil, t = 2 weeks, 70° C.",98.30 (97.92-98.67) %
same,Percentage of recovery of DMVT-505,"in Crodamol GTCC, t = 0",96.27 (92.36-100.18) %
same,Percentage of recovery of DMVT-505,"in Crodamol GTCC, t = 2 weeks, 40° C.",88.46 (87.70-89.21) %
same,Percentage of recovery of DMVT-505,"in Crodamol GTCC, t = 2 weeks, 70° C.",86.96 (86.83-87.09) %
same,Percentage of recovery of DMVT-505,"in Diethyl sebacate, t = 0",101.25 (101.15-101.35) %
same,Percentage of recovery of DMVT-505,"in Diethyl sebacate, t = 2 weeks, 40° C.",98.15 (97.91-98.39) %
same,Percentage of recovery of DMVT-505,"in Diethyl sebacate, t = 2 weeks, 70° C.",95.58 (95.32-95.84) %
same,Percentage of recovery of DMVT-505,"in Diisopropyl adipate, t = 0",99.55 (99.31-99.80) %
same,Percentage of recovery of DMVT-505,"in Diisopropyl adipate, t = 2 weeks, 40° C.",94.05 (90.03-98.07) %
same,Percentage of recovery of DMVT-505,"in Diisopropyl adipate, t = 2 weeks, 70° C.",92.84 (92.74-92.95) %
same,Percentage of recovery of DMVT-505,"in Dipropylene glycol, t = 0",96.98 (96.87-97.09) %
same,Percentage of recovery of DMVT-505,"in Dipropylene glycol, t = 2 weeks, 40° C.",96.11 (94.89-97.34) %
same,Percentage of recovery of DMVT-505,"in Dipropylene glycol, t = 2 weeks, 70° C.",94.01 (93.73-94.30) %
same,Percentage of recovery of DMVT-505,"in Ethanol, t = 0",99.60 (99.60-99.60) %
same,Percentage of recovery of DMVT-505,"in Ethanol, t = 2 weeks, 40° C.",95.90 (95.54-96.26) %
same,Percentage of recovery of DMVT-505,"in Ethanol, t = 2 weeks, 70° C.",95.26 (95.13-95.38) %
same,Percentage of recovery of DMVT-505,"in Hexylene glycol, t = 0",99.76 (99.40-100.11) %
same,Percentage of recovery of DMVT-505,"in Hexylene glycol, t = 2 weeks, 40° C.",98.28 (98.27-98.30) %
same,Percentage of recovery of DMVT-505,"in Hexylene glycol, t = 2 weeks, 70° C.",95.89 (95.61-96.18) %
same,Percentage of recovery of DMVT-505,"in IPA, t = 0",97.33 (96.92-97.75) %
same,Percentage of recovery of DMVT-505,"in IPA, t = 2 weeks, 40° C.",96.10 (95.81-96.40) %
same,Percentage of recovery of DMVT-505,"in IPA, t = 2 weeks, 70° C.",97.33 (95.03-99.64) %
same,Percentage of recovery of DMVT-505,"in IPM, t = 0",101.41 (101.26-101.55) %
same,Percentage of recovery of DMVT-505,"in IPM, t = 2 weeks, 40° C.",98.38 (98.24-98.52) %
same,Percentage of recovery of DMVT-505,"in IPM, t = 2 weeks, 70° C.",102.19 (101.64-102.75) %
same,Percentage of recovery of DMVT-505,"in IPP, t = 0",98.02 (97.37-98.67) %
same,Percentage of recovery of DMVT-505,"in IPP, t = 2 weeks, 40° C.",96.86 (96.72-97.00) %
same,Percentage of recovery of DMVT-505,"in IPP, t = 2 weeks, 70° C.",95.26 (95.16-95.36) %
same,Percentage of recovery of DMVT-505,"in Jojoba oil, t = 0",102.54 (100.22-104.86) %
same,Percentage of recovery of DMVT-505,"in Jojoba oil, t = 2 weeks, 40° C.",99.85 (99.49-100.20) %
same,Percentage of recovery of DMVT-505,"in Jojoba oil, t = 2 weeks, 70° C.",97.42 (96.91-97.92) %
same,Percentage of recovery of DMVT-505,"in Kollicream ® 3C, t = 0",99.73 (98.91-100.55) %
same,Percentage of recovery of DMVT-505,"in Kollicream ® 3C, t = 2 weeks, 40° C.",98.50 (98.35-98.65) %
same,Percentage of recovery of DMVT-505,"in Kollicream ® 3C, t = 2 weeks, 70° C.",96.68 (96.58-96.78) %
same,Percentage of recovery of DMVT-505,"in Kollicream ® OA, t = 0",96.55 (96.42-96.67) %
same,Percentage of recovery of DMVT-505,"in Kollicream ® OA, t = 2 weeks, 40° C.",95.27 (95.27-95.27) %
same,Percentage of recovery of DMVT-505,"in Kollicream ® OA, t = 2 weeks, 70° C.",88.33 (88.11-88.55) %
same,Percentage of recovery of DMVT-505,"in Kollicream ® OD, t = 0",100.20 (100.01-100.40) %
same,Percentage of recovery of DMVT-505,"in Kollicream ® OD, t = 2 weeks, 40° C.",94.16 (93.41-94.92) %
same,Percentage of recovery of DMVT-505,"in Kollicream ® OD, t = 2 weeks, 70° C.",83.50 (83.36-83.64) %
same,Percentage of recovery of DMVT-505,"in MethoxyPEG 350, t = 0",99.10 (99.10-99.11) %
same,Percentage of recovery of DMVT-505,"in MethoxyPEG 350, t = 2 weeks, 40° C.",93.19 (90.07-96.32) %
same,Percentage of recovery of DMVT-505,"in MethoxyPEG 350, t = 2 weeks, 70° C.",83.26 (83.03-83.49) %
same,Percentage of recovery of DMVT-505,"in Olive oil, t = 0",98.54 (98.36-98.71) %
same,Percentage of recovery of DMVT-505,"in Olive oil, t = 2 weeks, 40° C.",98.39 (98.02-98.76) %
same,Percentage of recovery of DMVT-505,"in Olive oil, t = 2 weeks, 70° C.",98.03 (98.00-98.07) %
same,Percentage of recovery of DMVT-505,"in PEG 200, t = 0",98.31 (98.23-98.39) %
same,Percentage of recovery of DMVT-505,"in PEG 200, t = 2 weeks, 40° C.",100.01 (99.18-100.84) %
same,Percentage of recovery of DMVT-505,"in PEG 200, t = 2 weeks, 70° C.",93.35 (93.25-93.45) %
same,Percentage of recovery of DMVT-505,"in PEG 400, t = 0",96.70 (96.59-96.81) %
same,Percentage of recovery of DMVT-505,"in PEG 400, t = 2 weeks, 40° C.",98.94 (98.38-99.50) %
same,Percentage of recovery of DMVT-505,"in PEG 400, t = 2 weeks, 70° C.",90.93 (90.80-91.06) %
same,Percentage of recovery of DMVT-505,"in Propylene glycol, t = 0",102.36 (102.01-102.72) %
same,Percentage of recovery of DMVT-505,"in Propylene glycol, t = 2 weeks, 40° C.",100.03 (99.90-100.17) %
same,Percentage of recovery of DMVT-505,"in Propylene glycol, t = 2 weeks, 70° C.",105.81 (105.52-106.09) %
same,Percentage of recovery of DMVT-505,"in Sesame oil, t = 0",101.19 (101.18-101.21) %
same,Percentage of recovery of DMVT-505,"in Sesame oil, t = 2 weeks, 40° C.",99.66 (98.97-100.34) %
same,Percentage of recovery of DMVT-505,"in Sesame oil, t = 2 weeks, 70° C.",97.78 (97.06-98.51) %
same,Percentage of recovery of DMVT-505,"in Sorbitan monooleate (Span 80), t = 0",86.17 (85.63-86.71) %
same,Percentage of recovery of DMVT-505,"in Sorbitan monooleate (Span 80), t = 2 weeks, 40° C.",103.33 (103.32-103.34) %
same,Percentage of recovery of DMVT-505,"in Sorbitan monooleate (Span 80), t = 2 weeks, 70° C.",95.36 (95.06-95.67) %
same,Percentage of recovery of DMVT-505,"in Sunflower oil, t = 0",98.29 (94.81-101.77) %
same,Percentage of recovery of DMVT-505,"in Sunflower oil, t = 2 weeks, 40° C.",100.74 (99.56-101.92) %
same,Percentage of recovery of DMVT-505,"in Sunflower oil, t = 2 weeks, 70° C.",99.78 (99.78-99.79) %
